# According to PubChem BioAssay AID342 (DTP/NCI, 2004):
# The list shows only some results of the screen, not a fair sample: it covers a few groups of compounds. Not every dose and run of a compound is shown. T/C gives the treated animals as a percentage of the vehicle group. Schedule codes are those of the source, read here as Q, the interval in days (D) or hours (H), X, the number of doses. Some entries were tested several times; their values stand side by side, smallest first. Some schedule codes hold Z or #, which are not explained here. Some entries show no survivor count and are marked so; the dose need not have been tolerated. Some T/C values carry the count of animals alive at the toxicity check; where neither a count nor a note follows, no animal had died by that day. Some doses have a count of surviving animals in place of a T/C: the source holds a T/C of zero for them, seemingly a mark for toxic or unscored doses. Counts of survivors are from the toxicity check, whose day is not always given; animals may have died later.
# Test system: Swiss mice, Sarcoma 180 sc, mean tumor weight T/C
# Experiment: NCI In Vivo Anticancer Drug Screen. Data for tumor model Sarcoma 180 (subcutaneous) in Swiss mice
# Settings: T/C endpoint: mean tumor weight, higher T/C = larger tumour
# Method: The antitumor activity of compounds was measured in mice bearing transplantable tumors. Survival or tumor size were measured and the results are expressed as the measurement made in the treated group (T) divided by the measurement made in the vehicle treated control group (C). The tumor model used in this assay is Sarcoma 180 (subcutaneous) in Swiss mice
# [1] = dose: 25.0 mg/kg/injection, schedule: Q#A X014 (ip), vehicle: methylcellulose (MC), evaluated on day 8
# [2] = dose: 50.0 mg/kg/injection, schedule: Q#A X014 (ip), vehicle: methylcellulose (MC), evaluated on day 8
# [3] = dose: 12.0 mg/kg/injection, schedule: Q#A X014 (ip), vehicle: methylcellulose (MC), evaluated on day 8
# [4] = dose: 17.5 mg/kg/injection, schedule: Q#A X014 (ip), vehicle: methylcellulose (MC), evaluated on day 8
# [5] = dose: 37.5 mg/kg/injection, schedule: Q#A X014 (ip), vehicle: methylcellulose (MC)
# [6] = dose: 12.5 mg/kg/injection, schedule: Q01DX007 (ip), vehicle: carboxymethylcellulose (CMC), evaluated on day 8
compound,measurement,setting,value
O=P1(N(CCCl)CCCl)OCC2CCCN21 (centres undefined),T/C,"dose: 15.62 mg/kg/injection, schedule: Q#A X014 (ip), vehicle: saline, evaluated on day 8",109 % of control
same,T/C,"dose: 31.25 mg/kg/injection, schedule: Q#A X014 (ip), vehicle: saline, evaluated on day 8",65 % of control
same,T/C,"dose: 62.5 mg/kg/injection, schedule: Q#A X014 (ip), vehicle: saline, evaluated on day 8",157 % of control
same,T/C,"dose: 125.0 mg/kg/injection, schedule: Q#A X014 (ip), vehicle: saline, evaluated on day 8",50 % of control
same,T/C,"dose: 250.0 mg/kg/injection, schedule: Q#A X014 (ip), vehicle: saline, evaluated on day 8",23 % of control
CC(C)N(CCCl)/N=N/c1nc2nc(N)[nH]c(=O)c2[nH]1,T/C,"dose: 12.5 mg/kg/injection, schedule: Q#A X014 (ip), vehicle: methylcellulose (MC), evaluated on day 8",85 % of control
same,T/C,[1],85 % of control
same,T/C,[2],62 % of control
same,T/C,"dose: 100.0 mg/kg/injection, schedule: Q#A X014 (ip), vehicle: methylcellulose (MC), evaluated on day 8",56 % of control [4 of 6 alive]
OC(CNCCCl)C(O)C(O)C(O)CNCCCl (centres undefined),T/C,"dose: 2.4 mg/kg/injection, schedule: Q#A X014 (ip), vehicle: carboxymethylcellulose (CMC), evaluated on day 8",75 % of control
same,T/C,"dose: 4.87 mg/kg/injection, schedule: Q#A X014 (ip), vehicle: carboxymethylcellulose (CMC), evaluated on day 8",58 % of control
same,T/C,"dose: 9.75 mg/kg/injection, schedule: Q#A X014 (ip), vehicle: carboxymethylcellulose (CMC), evaluated on day 8",58 % of control
same,T/C,"dose: 19.5 mg/kg/injection, schedule: Q#A X014 (ip), vehicle: carboxymethylcellulose (CMC), evaluated on day 8",49 % of control [7 of 10 alive]
CN(CCCl)/N=N/c1nc2nc(N)[nH]c(=O)c2[nH]1,T/C,[3],111 % of control
same,T/C,[4],91 % of control
same,T/C,[1],82 % of control
same,survivor count,[5],2 of 6
CC[C@H](C)[C@@H]1NC(=O)/C(=C(\C)O)C1=O,T/C,[6],93 % of control
same,T/C,"dose: 25.0 mg/kg/injection, schedule: Q01DX007 (ip), vehicle: carboxymethylcellulose (CMC), evaluated on day 8",113 % of control [5 of 6 alive]
same,survivor count,"dose: 50.0 mg/kg/injection, schedule: Q01DX007 (ip), vehicle: carboxymethylcellulose (CMC)",3 of 6
same,survivor count,"dose: 100.0 mg/kg/injection, schedule: Q01DX007 (ip), vehicle: carboxymethylcellulose (CMC)",0 of 6
CCN(CCCl)/N=N/c1nc2nc(N)[nH]c(=O)c2[nH]1,T/C,[3],86 % of control
same,T/C,[4],90 % of control [5 of 6 alive]
same,survivor count,"dose: 25.0 mg/kg/injection, schedule: Q#A X014 (ip), vehicle: methylcellulose (MC)",3 of 6
same,T/C,"dose: 37.5 mg/kg/injection, schedule: Q#A X014 (ip), vehicle: methylcellulose (MC), evaluated on day 8",110 % of control [4 of 6 alive]
O=[N+]([O-])c1cc([N+](=O)[O-])c(C(F)(F)F)c([N+](=O)[O-])c1O,T/C,"dose: 25.0 mg/kg/injection, schedule: Q01DX007 (ip), vehicle: saline, evaluation day not shown",146 % of control [survivor count not shown]
same,T/C,"dose: 50.0 mg/kg/injection, schedule: Q01DX007 (ip), vehicle: saline, evaluation day not shown",101 % of control [survivor count not shown]
O=NN1CCN/C1=N\[N+](=O)[O-],T/C,"dose: 20.0 mg/kg/injection, schedule: Q#A X014 (ip), vehicle: methylcellulose (MC), evaluated on day 8",149 % of control
same,T/C,"dose: 40.0 mg/kg/injection, schedule: Q#A X014 (ip), vehicle: methylcellulose (MC), evaluated on day 8",130 % of control [4 of 6 alive]
same,T/C,"dose: 80.0 mg/kg/injection, schedule: Q#A X014 (ip), vehicle: methylcellulose (MC), evaluated on day 8",113 % of control [5 of 6 alive]
NC(CC(=O)O)c1cccc(N(CCCl)CCCl)c1 (centres undefined),T/C,"dose: 11.0 mg/kg/injection, schedule: Q#A X014 (ip), vehicle: carboxymethylcellulose (CMC), evaluated on day 8",64 % of control
same,T/C,"dose: 11.0 mg/kg/injection, schedule: Q#A X014 (ip), vehicle: methylcellulose (MC), evaluated on day 8",28 % of control [5 of 6 alive]
same,T/C,"dose: 16.5 mg/kg/injection, schedule: Q#A X014 (ip), vehicle: carboxymethylcellulose (CMC), evaluated on day 8",42 % of control [5 of 6 alive]
same,T/C,"dose: 16.5 mg/kg/injection, schedule: Q#A X014 (ip), vehicle: methylcellulose (MC), evaluated on day 8",16 % of control
same,T/C,"dose: 25.0 mg/kg/injection, schedule: Q#A X014 (ip), vehicle: carboxymethylcellulose (CMC), evaluated on day 8",6 % of control
same,T/C,[1],17 % of control [5 of 6 alive]
same,survivor count,[5],3 of 6
O=C(O)/C=C\c1cccc(N(CCCl)CCCl)c1,T/C,"dose: 3.12 mg/kg/injection, schedule: Q01DX007 (ip), vehicle: carboxymethylcellulose (CMC), evaluated on day 8",122 % of control
same,T/C,"dose: 6.25 mg/kg/injection, schedule: Q01DX007 (ip), vehicle: carboxymethylcellulose (CMC), evaluated on day 8",74 % of control
same,T/C,[6],68 % of control
same,T/C,"dose: 22.0 mg/kg/injection, schedule: Q#A X014 (ip), vehicle: methylcellulose (MC), evaluated on day 8",62 and 72 % of control
same,T/C,"dose: 33.0 mg/kg/injection, schedule: Q#A X014 (ip), vehicle: methylcellulose (MC), evaluated on day 8",27 and 41 % of control
same,T/C,[2],18 [5 of 6 alive] and 25 % of control
same,T/C,"dose: 53.0 mg/kg/injection, schedule: Q01DX007 (ip), vehicle: carboxymethylcellulose (CMC), evaluated on day 8",17 % of control [4 of 6 alive]
same,T/C,"dose: 75.0 mg/kg/injection, schedule: Q#A X014 (ip), vehicle: methylcellulose (MC), evaluated on day 8",14 [5 of 6 alive] and 16 % of control
same,survivor count,"dose: 80.0 mg/kg/injection, schedule: Q01DX007 (ip), vehicle: carboxymethylcellulose (CMC)",1 of 6
same,survivor count,"dose: 200.0 mg/kg/injection, schedule: Q01DX007 (ip), vehicle: carboxymethylcellulose (CMC)",0 of 6
same,survivor count,"dose: 300.0 mg/kg/injection, schedule: Q01DX007 (ip), vehicle: carboxymethylcellulose (CMC)",0 of 6
same,survivor count,"dose: 450.0 mg/kg/injection, schedule: Q01DX007 (ip), vehicle: carboxymethylcellulose (CMC)",0 of 6
same,survivor count,"dose: 675.0 mg/kg/injection, schedule: Q01DX007 (ip), vehicle: carboxymethylcellulose (CMC)",0 of 6
CCOC(=O)COc1ccc(N(CCCl)CCCl)cc1,T/C,"dose: 2.0 mg/kg/injection, schedule: Q#A X014 (ip), vehicle: methylcellulose (MC), evaluated on day 8",74 % of control
same,T/C,"dose: 3.0 mg/kg/injection, schedule: Q#A X014 (ip), vehicle: methylcellulose (MC), evaluated on day 8",50 % of control
same,T/C,"dose: 4.5 mg/kg/injection, schedule: Q#A X014 (ip), vehicle: methylcellulose (MC), evaluated on day 8",26 % of control
same,T/C,"dose: 6.75 mg/kg/injection, schedule: Q#A X014 (ip), vehicle: methylcellulose (MC), evaluated on day 8",18 % of control
CC1=C2C(=CC(C)(C)C2O)C(O)C(C)(O)C12CC2 (centres undefined),T/C,"dose: 0.25 mg/kg/injection, schedule: Q01DX007 (ip), vehicle: saline, evaluated on day 8",49 % of control
same,T/C,"dose: 0.5 mg/kg/injection, schedule: Q01DX007 (ip), vehicle: saline, evaluated on day 8",72 % of control
same,T/C,"dose: 1.0 mg/kg/injection, schedule: Q01DX007 (ip), vehicle: saline, evaluated on day 8",63 % of control
same,T/C,"dose: 2.0 mg/kg/injection, schedule: Q01DX007 (ip), vehicle: saline, evaluated on day 8",103 % of control
same,T/C,"dose: 4.0 mg/kg/injection, schedule: Q01DX007 (ip), vehicle: saline, evaluated on day 8",109 % of control [5 of 6 alive]
same,T/C,"dose: 8.0 mg/kg/injection, schedule: Q01DX007 (ip), vehicle: saline, evaluated on day 8",126 % of control
same,T/C,"dose: 16.0 mg/kg/injection, schedule: Q01DX007 (ip), vehicle: saline, evaluated on day 8",98 and 104 % of control
same,T/C,"dose: 32.0 mg/kg/injection, schedule: Q01DX007 (ip), vehicle: saline, evaluated on day 8",95 and 134 % of control
same,T/C,"dose: 64.0 mg/kg/injection, schedule: Q01DX007 (ip), vehicle: saline, evaluated on day 8",79 % of control
same,T/C,"dose: 128.0 mg/kg/injection, schedule: Q01DX007 (ip), vehicle: saline, evaluated on day 8",64 % of control
